Assay results as given in PubChem BioAssay AID720504 (National Center for Advancing Translational Sciences (NCATS), 2013).
Among all 360,000 compounds or so, about 10,000 (2.8%) were called active. The inconclusive results got no clear call from the source; some entries with a clear call stand among them for comparison. Calls come from the whole dose curve; as a rule, active = well fitted inhibition curve with a large enough effect; inconclusive = small, poorly fitted or top-dose-only effect; inactive = flat fitted curve, though single readings scatter. Potencies beside an inconclusive call are fits to weak or partial responses and may not hold up.

Chains of the proteins cited; added tags and fusions are not shown.
UniProt P53350, whole entry, looked up: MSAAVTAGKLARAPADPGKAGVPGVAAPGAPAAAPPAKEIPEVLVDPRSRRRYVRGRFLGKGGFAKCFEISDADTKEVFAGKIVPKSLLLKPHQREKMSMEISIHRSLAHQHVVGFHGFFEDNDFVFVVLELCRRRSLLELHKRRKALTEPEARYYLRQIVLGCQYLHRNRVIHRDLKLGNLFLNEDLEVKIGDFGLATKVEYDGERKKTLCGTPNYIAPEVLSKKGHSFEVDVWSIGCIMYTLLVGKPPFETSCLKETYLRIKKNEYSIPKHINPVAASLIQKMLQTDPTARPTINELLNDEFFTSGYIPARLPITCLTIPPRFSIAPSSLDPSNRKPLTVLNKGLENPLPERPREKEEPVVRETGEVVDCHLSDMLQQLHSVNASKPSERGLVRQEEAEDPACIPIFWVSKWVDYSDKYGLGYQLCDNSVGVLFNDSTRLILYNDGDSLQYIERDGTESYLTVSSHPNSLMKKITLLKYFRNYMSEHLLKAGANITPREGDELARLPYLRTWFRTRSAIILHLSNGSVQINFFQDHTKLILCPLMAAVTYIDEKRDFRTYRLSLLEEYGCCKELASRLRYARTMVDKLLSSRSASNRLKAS

What follows are molecules tested against Serine/threonine-protein kinase PLK1 (Homo sapiens) (UniProt P53350) (assay: qHTS for Inhibitors of PLK1-PDB (polo-like kinase 1 - polo-box domain): Primary Screen). Conditions: Plk1 PBD binding of FITC phosphopeptide, fluorescence polarization.
Source text: The polo-like kinase 1 (Plk1) is a member of a conserved subfamily of serine / threonine protein kinases that plays a pivotal roles in cell proliferation. It has a C-terminal non-catalytic region called the polo-box domain (PBD) that plays a crucial role in the subcellular localization of the Plk1. […] Furthermore, depletion of the overexpressed Plk1 by RNAi efficiently induces apoptotic cell death in cancer and reduces tumor growth in mouse xenograft models. Thus, targeting Plk1 is an appealing strategy for anti-cancer therapy. Therefore, this project aimed to screen the Molecular Libraries Small Molecule Repository (MLSMR) using a novel approach to find inhibitors that target the Plk1 PBD instead of the conventional N-terminal catalytic domain. This project employed a fluorescence polarization (FP) assay using a FITC-conjugated phospho-9-mer (p-9-mer) peptide and purified human Plk1 PBD protein. The identified small molecule inhibitors of Plk1 PBD can then further be developed into useful tools for biomedical and clinical research that complements or replaces current relevant disease therapy. NIH Chemical Genomics Center [NCGC] NIH Molecular Libraries Probe Centers Network [MLPCN] MLPCN Grant: MH100728 Assay Submitter (PI): Kyung Lee, NCI
Four microliter of 25 nM FITC-p-9-mer + 60 nM Plk1 PBD in buffer solution (final concentrations 25 nM and 60 nM respectively) or 4 uL of 25 nM FITC-p-9-mer (final concentration 25 nM) in buffer will be dispensed into a 1,536 Greiner medium-binding black solid plate. Small molecules at final concentrations of 18 nM to 57 uM and positive control phospho-9-mer (sequence: Ac-PPLHSpTAI-NH2) at final concentrations 26 nM to 57 uM and phospho-13-mer (sequence: Ac-[…]pTAI-NH2) at final concentrations of 1 nM to 2.3 uM will be pin-transferred (23 nL) to the plate via a Kalypsys pin-tool robotics equipped with a 1,536-pin array. The reaction plate will be centrifuged for 1 min at 1000 rpm and incubated at room temperature for 10 min. The FITC fluorescence signals will be read using the PerkinElmer ViewLux plate reader at 480 / 20 nm excitation and 540 / 20 nm S and P polarization emission wavelengths. Reagent bottles will be kept submerged into 4 °C recirculating chiller bath and all liquid lines will be covered with aluminum foil to minimize degradation. Library plates will be screened starting from the lowest to the highest concentrations to minimize compound carryover. Vehicle only plates, with DMSO being pin-transferred instead of compound solutions, will be included regularly throughout the screen to record any systematic shifts in assay signal.
% is set by controls: 0 for no effect and ±100 for the full control effect; potency is the fitted concentration of half-maximal effect.
Note: nearly all actives have a fitted effect of over 65% in size.
Throughout, for max response, negative = inhibition: series mostly up to about 57 µM.

SMILES	max response, negative = inhibition	Potency
CCSc1nc2sc3c(c2c(=O)[nH]1)CC(C)(CC)OC3 (centres undefined)	inactive: -13.4%	
CS(=O)(=O)C1=NSC2=NC(=O)/C(=C\c3cccn3-c3ccccc3Cl)C(=N)N21		inconclusive: 29.9 µM [inhibitor, partial curve]
CSc1ccccc1C(=O)OCC(=O)NC1CCS(=O)(=O)C1 (centres undefined)		inconclusive: 23.8 µM [inhibitor, single point]
Cc1nc([N+](=O)[O-])c(Br)n1CC(=O)c1ccccc1	inconclusive: -30.4% [inhibitor]	
Cc1cnc(=O)[nH]c1SCc1ccc([N+](=O)[O-])cc1		inconclusive: 37.7 µM [inhibitor, partial curve, poor fit]
Cc1cc(O)c(Oc2cc(C)cc(O)c2O)c(O)c1		inconclusive: 37.7 µM [inhibitor, single point]
Cc1cc(O)c(C(=O)/C=C/c2ccccc2)c(=O)o1	inactive: -11%	
COc1ccc(C(=O)N2CCN(c3ccc([N+](=O)[O-])c(NCCc4ccc(OC)c(OC)c4)c3)CC2)cc1	inactive: 5.56%	
O=C(/C=C/c1ccccc1Cl)Nc1cccc(O)c1	inactive: -2.13%	
CC(=O)NC(=S)Nc1ccc(S(=O)(=O)N2CCOCC2)cc1		inconclusive: 18.9 µM [inhibitor, partial curve]
NC(=O)c1c(NC(=O)C2CCCO2)sc2c1CCCCC2 (centres undefined)		active: 10.6 µM
CCOc1ccc(OCC)c(NC(=O)CN(C)S(=O)(=O)c2cccc3nsnc23)c1		active: 29.9 µM
COc1ccccc1Cn1cnc2cccnc21		inconclusive: 26.7 µM [inhibitor, single point]
Cc1cc(/C=N/NC(N)=S)c(C)n1-c1ccc(Cl)cc1		active: 29.9 µM
COc1ccc(Nc2nc(N)nc(CSc3nccn3C)n2)cc1		inconclusive: 8.44 µM [inhibitor, single point]
Cc1cc(C(=O)OCC(=O)Nc2sc3c(c2C#N)CCC(C)C3)c2ccccc2n1 (centres undefined)		inconclusive: 29.9 µM [inhibitor, partial curve]
O=C(CSc1nnc(NC(=O)c2ccccc2C(=O)O)s1)Nc1ccccc1Cl		inconclusive: 15 µM [inhibitor, partial curve]
COc1ccc(C(O)c2ncc(-c3cccc4ccccc34)[nH]2)cc1F (centres undefined)	inactive: 2.84%	
Clc1ccccc1-c1nn2c(COc3ccccc3)nnc2s1		inconclusive: 26.7 µM [inhibitor, partial curve]
CC(C)CCNC(=O)C(c1ccc(O)cc1)N(C(=O)C1COc2ccccc2O1)c1cccc(O)c1 (centres undefined)		active: 18.9 µM
O=[N+]([O-])c1cc(/C=N/Nc2nc3ccccc3[nH]2)c(O)cc1O		inconclusive: 33.6 µM [inhibitor, single point]
CC(=O)N/C(=C/c1ccc2c(c1)OCO2)C(=O)N1CCOCC1	inactive: 2.12%	
COCc1nnc(NC(=O)CCCOc2ccccc2OC)s1		active: 26.7 µM
O=[N+]([O-])c1ccc(Nc2nc(Cl)nc(NCCO)n2)cc1	inactive: -13%	
Cc1cc(NS(=O)(=O)c2ccc(NC(=O)CCCOc3ccccc3C)cc2)nc(C)n1		inconclusive: 26.7 µM [inhibitor, partial curve]

SMILES	max response, negative = inhibition	Potency
Cc1ccc(NC(=S)c2ccc3ccccc3n2)c(C)c1		active: 13.4 µM
Cn1cccc1-c1cc(C(=O)N/N=C/c2ccccc2Cl)[nH]n1		inconclusive: 15 µM [inhibitor, partial curve]
O=C(CSc1nnnn1-c1ccccc1)NC(=O)Cc1ccccc1	inactive: 4.9%	
CCOc1ccccc1CNC(=O)CCCC(=O)n1nc(C)c2ccccc21	inconclusive: -34.1% [inhibitor]	
COCc1cc(C)nc2sc(C(=O)Nc3ccccc3Br)c(N)c12		inconclusive: 26.7 µM [inhibitor, single point]
CCCCCCNC(=O)c1cc(-c2ccco2)nc2ccccc12		active: 26.7 µM
CCCCCCNc1c([N+](=O)[O-])cc(C)cc1[N+](=O)[O-]		inconclusive: 23.8 µM [inhibitor, partial curve]
CN(C(=O)c1ccoc1)c1ccc2ccccc2c1	inactive: -4.97%	
CN1CCN(c2ccccc2NC(=O)c2ccc([N+](=O)[O-])o2)CC1	inactive: -26.9%	
CCOC(=O)N1CCC(N(CCN(C)C)C(=S)Nc2ccc(Oc3ccccc3)cc2)CC1		inconclusive: 42.3 µM [inhibitor, partial curve, poor fit]
CCCN1C(=O)/C(=C\C=C2/Sc3ccccc3N2CCO)SC1=S	inactive: -12.9%	
N=c1c(S(=O)(=O)c2ccc(Br)cc2)cc2c(=O)n3ccccc3nc2n1Cc1ccccc1		inconclusive: 37.7 µM [inhibitor, partial curve]
CCOc1ccc(N2C(=O)CC(N3CCN(c4ccc(C(=O)c5ccncc5)cc4)CC3)C2=O)cc1 (centres undefined)		inconclusive: 26.7 µM [inhibitor, partial curve]
CCOc1ccc(N(C)C(=O)CCc2nnc3ccc(NCc4ccco4)nn23)cc1		inconclusive: 21.2 µM [inhibitor, partial curve]
CC1CCCC(C)N1C(=O)CSc1nc2ccccc2s1 (centres undefined)		inconclusive: 21.2 µM [inhibitor, partial curve]
CC(C)N(C(=S)Nc1cccc(S(=O)(=O)N(C)C)c1)c1ccccc1		inconclusive: 26.7 µM [inhibitor, partial curve]
Clc1cccc(CN2CCC(Cc3ccccc3)CC2)c1	inactive: -3.91%	
O=C(C1CC1)N1CCc2cc(Br)cc(S(=O)(=O)NCCCN3CCCC3)c21	inactive: -10.1%	
COc1ccc(N2C(=O)CC(C3CCCO3)C2=O)cc1 (centres undefined)		inconclusive: 29.9 µM [inhibitor, single point]
O=C1C(Cl)=C(Nc2ccccc2O)C(=O)N1CCc1ccccc1		active: 4.23 µM
C=CCOc1ccc(C2=NO[C@@H]3[C@@H]4C[C@@H]([C@H]5C(=O)N(C)C(=O)[C@@H]45)[C@H]23)cc1	inactive: -2.96%	
COc1ccc(S(=O)(=O)c2nnn(-c3cccc(Cl)c3)c2N)cc1		inconclusive: 33.6 µM [inhibitor, partial curve]
Cc1ccc(-c2nc(NC(=O)CSc3nnc4scc(-c5ccccc5)n34)ns2)cc1		inconclusive: 37.7 µM [inhibitor, single point]
CSc1nnc(NC(=O)c2nc(S(=O)(=O)Cc3cccc(C)c3)ncc2Cl)s1		inconclusive: 26.7 µM [inhibitor, partial curve]
CC(C)Oc1cc(F)ccc1-c1cc(C(=O)NCCCn2ccnc2)[nH]n1	inactive: -13.2%	

Grouped by structure, the compounds so far with two or more sulfur atoms (eleven)
SMILES	max response, negative = inhibition	Potency
CCSc1nc2sc3c(c2c(=O)[nH]1)CC(C)(CC)OC3 (centres undefined)	inactive: -13.4%	
CS(=O)(=O)C1=NSC2=NC(=O)/C(=C\c3cccn3-c3ccccc3Cl)C(=N)N21		inconclusive: 29.9 µM [inhibitor, partial curve]
CSc1ccccc1C(=O)OCC(=O)NC1CCS(=O)(=O)C1 (centres undefined)		inconclusive: 23.8 µM [inhibitor, single point]
CC(=O)NC(=S)Nc1ccc(S(=O)(=O)N2CCOCC2)cc1		inconclusive: 18.9 µM [inhibitor, partial curve]
CCOc1ccc(OCC)c(NC(=O)CN(C)S(=O)(=O)c2cccc3nsnc23)c1		active: 29.9 µM
O=C(CSc1nnc(NC(=O)c2ccccc2C(=O)O)s1)Nc1ccccc1Cl		inconclusive: 15 µM [inhibitor, partial curve]
CCCN1C(=O)/C(=C\C=C2/Sc3ccccc3N2CCO)SC1=S	inactive: -12.9%	
CC1CCCC(C)N1C(=O)CSc1nc2ccccc2s1 (centres undefined)		inconclusive: 21.2 µM [inhibitor, partial curve]
CC(C)N(C(=S)Nc1cccc(S(=O)(=O)N(C)C)c1)c1ccccc1		inconclusive: 26.7 µM [inhibitor, partial curve]
Cc1ccc(-c2nc(NC(=O)CSc3nnc4scc(-c5ccccc5)n34)ns2)cc1		inconclusive: 37.7 µM [inhibitor, single point]
CSc1nnc(NC(=O)c2nc(S(=O)(=O)Cc3cccc(C)c3)ncc2Cl)s1		inconclusive: 26.7 µM [inhibitor, partial curve]

Further records follow:

SMILES	max response, negative = inhibition	Potency
CC(CN1CCCCC1)OC(=O)c1cccc(F)c1 (centres undefined)	inactive: -2.79%	
Cc1ccc(-c2ccc(C3C(C#N)=C(N)Oc4n[nH]c(C)c43)o2)cc1 (centres undefined)		inconclusive: 21.2 µM [inhibitor, single point]
FC(F)(F)c1cccc(N2CCC(N=CN3CCCCCC3)=N2)c1		inconclusive: 23.8 µM [inhibitor, partial curve]
COc1ccc(/C=N/n2cnc3c([nH]c4ccccc43)c2=O)cc1CO		active: 10.6 µM
NS(=O)(=O)c1ccc(CCNCC(=O)N2CCC(Cc3ccccc3)CC2)cc1	inconclusive: -35.1% [inhibitor]	
COCCNS(=O)(=O)c1cc(C(=O)O)ccc1OC		inconclusive: 8.44 µM [inhibitor, partial curve]
CCn1c(SCC(N)=O)nc2sc3c(c2c1=O)CCCC3	inactive: -7.93%	
N#C/C(=C/c1ccc(C(=O)O)cc1)C(=O)NCc1ccccc1	inactive: -1.18%	
O=C(c1cc(Cl)ccc1Cl)N1CCc2ccccc21		active: 26.7 µM
CCCCNC(=O)C1(C)CCCCN1Cc1ccc2ccccc2c1 (centres undefined)	inactive: -13.8%	
COc1ccc(CCNC(=O)CCN2C(=O)C3CC=CCC3C2=O)cc1OC (centres undefined)		active: 23.8 µM
Cc1ccc(NS(=O)(=O)c2ccc(NC(=O)c3ccc(-c4ccccc4)cc3)cc2)c(C)c1		active: 23.8 µM
Nc1cc(=O)[nH]c(SCC(=O)Nc2cccc([N+](=O)[O-])c2)n1	inactive: -16.5%	
CCc1cc(=O)oc2cc(OCc3nn[nH]n3)ccc12		inconclusive: 23.8 µM [inhibitor, single point]
Cn1cccc1C(=O)OCC(=O)N1CCc2ccccc21	inactive: -3.86%	
CC(=O)Nc1sc(N/N=C\c2ccccc2F)nc1-c1cccs1	inactive: -11.6%	
Cc1ccc2c(c1)NCCO2	inactive: -8.26%	
COc1cc(C(=O)N=c2sc3ccccc3n2C)cc(OC)c1OC		inconclusive: 26.7 µM [inhibitor, single point]
COc1ccc(C)cc1NC(=O)CSc1nc(SC)ns1		inconclusive: 23.8 µM [inhibitor, partial curve]
Cc1nc(SCC(=O)c2cccc([N+](=O)[O-])c2)n[nH]1		inconclusive: 23.8 µM [inhibitor, single point]
Cn1c(=O)c2c(nc(N3CCCCCC3)n2CC(=O)c2ccccc2)n(C)c1=O		inconclusive: 26.7 µM [inhibitor, partial curve]
CCn1c(=N)n(CC(=O)c2ccc(Br)s2)c2ccccc21		inconclusive: 26.7 µM [inhibitor, single point]
Cc1ccc(-c2csc(Nc3ccc(C(=O)O)cc3)[n+]2Cc2ccccc2)cc1		inconclusive: 42.3 µM [inhibitor, partial curve]
COc1ccc(C(=O)n2nc(-c3ccco3)nc2SC)cc1OC		inconclusive: 11.9 µM [inhibitor, partial curve]

2 entries from above, bar-delimited.
SMILES | max response, negative = inhibition | Potency
Cc1ccc(-c2ccc(C3C(C#N)=C(N)Oc4n[nH]c(C)c43)o2)cc1 (centres undefined) |  | inconclusive: 21.2 µM [inhibitor, single point]
FC(F)(F)c1cccc(N2CCC(N=CN3CCCCCC3)=N2)c1 |  | inconclusive: 23.8 µM [inhibitor, partial curve]
